# Reference: the supplement of paper PMC8728848
# This is one part of the list.
# B1: truncCC1G-10077 (Coprinopsis cinerea) (protein)
# chain: MHHHHHHHHPLPSPGPGWVLIQNGGTGKFLCSTPSGDIGTADGPETVYDYSVQWRFIQREYTGVYHVVNRATGAYLRQIGTSMPSIGLAEENDDELKDWWMLETYDNSEIGLASIISRWTGNVLDHYGGVSVQALDNNTENSYRSWAIIPARDWLTSFSLVNGQGGLCLAAQYAREETRLSTTANVNDFHAQWVFRKPSGSSGYTIQNKYNNHYVGGTSARWELVVCCNKYFGIRNTSTQKYLAIEDGQVTFQDQDMTDRKQCWELCSGRATDTSGNDYDLIYMDDDLLEVMIPWVGDKQGDLKHYIEKRATKKPPKDKGGWQLPAAGLIKKPKFNDIRQLLQELIEQWEWDVVNEEREQIQTLVSIDEAEARRLLGRRPHPDIVAAYQRSRSSTLFRIDRQGYFNIAGDRYVNIQGQYGDDSYFHIALPVGVRFGREQIRRFLRDSLDRSTSVTITPTTCKPPSGGPDYNRDPDSDGDNSWIKWTIAVVGTSAIKHSEL
# What was measured:
# Test in all cases: glycan array binding signal (z-score within array); higher = stronger binding
# Conditions in all cases: glycan notation: IUPAC condensed, linker removed
# [1] = target: Fuc(a1-2)[GalNAc(a1-3)]Gal(b1-3)GlcNAc(b1-6)GalNAc
# Outline: (§1)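 The binding signal is a Z-score computed within each array and averaged over linkers. Arrays of the same protein sequence at different concentrations or buffers were also averaged together. Data originate from 3228 arrays in the Consortium for Functional Glycomics database, kept only where the protein sequence was available.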
# [2] = target: Fuc(a1-2)[GalNAc(a1-3)]Gal(b1-4)Glc
# Outline: as §1
# [3] = target: Fuc(a1-2)[GalNAc(a1-3)]Gal(b1-4)GlcNAc
# Outline: as §1
# [4] = target: Fuc(a1-2)[GalNAc(a1-3)]Gal(b1-4)GlcNAc(b1-2)Man
# Outline: as §1
# [5] = target: Fuc(a1-2)[GalNAc(a1-3)]Gal(b1-4)GlcNAc(b1-2)Man(a1-3)[Fuc(a1-2)[GalNAc(a1-3)]Gal(b1-4)GlcNAc(b1-2)Man(a1-6)]Man(b1-4)GlcNAc(b1-4)GlcNAc
# Outline: as §1
# [6] = target: Fuc(a1-2)[GalNAc(a1-3)]Gal(b1-4)GlcNAc(b1-2)Man(a1-3)[Fuc(a1-2)[GalNAc(a1-3)]Gal(b1-4)GlcNAc(b1-2)Man(a1-6)]Man(b1-4)GlcNAc(b1-4)[Fuc(a1-6)]GlcNAc
# Outline: as §1
# [7] = target: Fuc(a1-2)[GalNAc(a1-3)]Gal(b1-4)GlcNAc(b1-3)Gal(b1-4)GlcNAc
# Outline: as §1
# [8] = target: Fuc(a1-2)[GalNAc(a1-3)]Gal(b1-4)GlcNAc(b1-3)Gal(b1-4)GlcNAc(b1-3)Gal(b1-4)GlcNAc
# Outline: as §1
# [9] = target: Fuc(a1-2)[GalNAc(a1-3)]Gal(b1-4)GlcNAc(b1-3)GalNAc
# Outline: as §1
# [10] = target: Fuc(a1-2)[GalNAc(a1-3)]Gal(b1-4)GlcNAc(b1-3)[Fuc(a1-2)[GalNAc(a1-3)]Gal(b1-4)GlcNAc(b1-6)]GalNAc
# Outline: as §1
# [11] = target: Fuc(a1-2)[GalNAc(a1-3)]Gal(b1-4)GlcNAc(b1-6)GalNAc
# Outline: as §1
# [12] = target: Fuc(a1-2)[GalNAc(a1-3)]Gal(b1-4)[Fuc(a1-3)]GlcNAc
# Outline: as §1
# [13] = target: Fuc(a1-2)[GalNAc(a1-3)]Gal(b1-4)[Fuc(a1-3)]GlcNAc(b1-3)GalNAc
# Outline: as §1
# [14] = target: Fuc(a1-2)[GalNAc(a1-4)]Gal(b1-4)GlcNAc
# Outline: as §1
# [15] = target: Fuc(a1-2)[GalNAc(b1-3)]Gal
# Outline: as §1
# Fuc(a1-3)GlcNAc = target: Fuc(a1-3)GlcNAc
# Outline: as §1
# [16] = target: Fuc(a1-3)[Gal(b1-4)]Glc6S
# Outline: as §1
# [17] = target: Fuc(a1-3)[Gal(b1-4)]GlcNAc
# Outline: as §1
# [18] = target: Fuc(a1-3)[Gal(b1-4)]GlcNAc(b1-2)Man
# Outline: as §1
# [19] = target: Fuc(a1-3)[Gal(b1-4)]GlcNAc(b1-2)Man(a1-3)[Fuc(a1-3)[Gal(b1-4)]GlcNAc(b1-2)Man(a1-6)]Man(b1-4)GlcNAc(b1-4)GlcNAc
# Outline: as §1
# [20] = target: Fuc(a1-3)[Gal(b1-4)]GlcNAc(b1-2)Man(a1-3)[Fuc(a1-3)[Gal(b1-4)]GlcNAc(b1-2)Man(a1-6)]Man(b1-4)GlcNAc(b1-4)[Fuc(a1-6)]GlcNAc
# Outline: as §1
# [21] = target: Fuc(a1-3)[Gal(b1-4)]GlcNAc(b1-3)Gal(b1-3)[Fuc(a1-4)]GlcNAc
# Outline: as §1
# [22] = target: Fuc(a1-3)[Gal(b1-4)]GlcNAc(b1-3)Gal(b1-4)[Fuc(a1-3)]GlcNAc
# Outline: as §1
# [23] = target: Fuc(a1-3)[Gal(b1-4)]GlcNAc(b1-3)Gal(b1-4)[Fuc(a1-3)]GlcNAc(b1-3)Gal(b1-4)[Fuc(a1-3)]GlcNAc
# Outline: as §1
# [24] = target: Fuc(a1-3)[Gal(b1-4)]GlcNAc(b1-3)GalNAc
# Outline: as §1
# [25] = target: Fuc(a1-3)[Gal(b1-4)]GlcNAc(b1-6)GalNAc
# Outline: as §1
# [26] = target: Fuc(a1-3)[Gal(b1-4)]GlcNAc(b1-6)[Gal(b1-3)GlcNAc(b1-3)]Gal(b1-4)Glc
# Outline: as §1
# [27] = target: Fuc(a1-3)[Gal(b1-4)]GlcNAc6S
# Outline: as §1
# [28] = target: Fuc(a1-3)[Gal3S(b1-4)]Glc
# Outline: as §1
# [29] = target: Fuc(a1-3)[Gal3S(b1-4)]GlcNAc
# Outline: as §1
# [30] = target: Fuc(a1-3)[Gal3S(b1-4)]GlcNAc6S
# Outline: as §1
# [31] = target: Fuc(a1-3)[GalNAc(b1-4)]GlcNAc
# Outline: as §1
# [32] = target: Fuc(a1-3)[GalNAc(b1-4)]GlcNAc6S
# Outline: as §1
# Fuc(a1-4)GlcNAc = target: Fuc(a1-4)GlcNAc
# Outline: as §1
# Fuc(b1-3)GlcNAc = target: Fuc(b1-3)GlcNAc
# Outline: as §1
# Gal(a1-2)Gal = target: Gal(a1-2)Gal
# Outline: as §1
# Gal(a1-3)Gal = target: Gal(a1-3)Gal
# Outline: as §1
binder,measurement,setting,value
B1,glycan array binding signal (z-score),[1],-1.08
same,glycan array binding signal (z-score),[2],-0.829
same,glycan array binding signal (z-score),[3],-1.17
same,glycan array binding signal (z-score),[4],-0.17
same,glycan array binding signal (z-score),[5],0.045
same,glycan array binding signal (z-score),[6],0.625
same,glycan array binding signal (z-score),[7],-1.1
same,glycan array binding signal (z-score),[8],0.822
same,glycan array binding signal (z-score),[9],1.18
same,glycan array binding signal (z-score),[10],0.208
same,glycan array binding signal (z-score),[11],-0.612
same,glycan array binding signal (z-score),[12],0.264
same,glycan array binding signal (z-score),[13],1.38
same,glycan array binding signal (z-score),[14],-0.664
same,glycan array binding signal (z-score),[15],-0.891
same,glycan array binding signal (z-score),Fuc(a1-3)GlcNAc,-0.634
same,glycan array binding signal (z-score),[16],0.611
same,glycan array binding signal (z-score),[17],-0.345
same,glycan array binding signal (z-score),[18],0.503
same,glycan array binding signal (z-score),[19],0.357
same,glycan array binding signal (z-score),[20],0.902
same,glycan array binding signal (z-score),[21],0.276
same,glycan array binding signal (z-score),[22],1.37
same,glycan array binding signal (z-score),[23],-0.523
same,glycan array binding signal (z-score),[24],0.24
same,glycan array binding signal (z-score),[25],3.46
same,glycan array binding signal (z-score),[26],-0.77
same,glycan array binding signal (z-score),[27],-0.152
same,glycan array binding signal (z-score),[28],0.613
same,glycan array binding signal (z-score),[29],0.286
same,glycan array binding signal (z-score),[30],1.49
same,glycan array binding signal (z-score),[31],2.42
same,glycan array binding signal (z-score),[32],-0.037
same,glycan array binding signal (z-score),Fuc(a1-4)GlcNAc,-0.054
same,glycan array binding signal (z-score),Fuc(b1-3)GlcNAc,-1.34
same,glycan array binding signal (z-score),Gal(a1-2)Gal,-1.16
same,glycan array binding signal (z-score),Gal(a1-3)Gal,-0.374

# Part of the list above, bar-delimited.
binder | measurement | setting | value
B1 | glycan array binding signal (z-score) | Fuc(b1-3)GlcNAc | -1.34
same | glycan array binding signal (z-score) | Gal(a1-2)Gal | -1.16
same | glycan array binding signal (z-score) | Gal(a1-3)Gal | -0.374
